Here are results for 42 sequences from PMC7819943, “Rice protein-binding microarrays: a tool to detect cis-acting elements near promoter regions in rice”.

Some of the results follow.

The test has as its target T1, OsSMF1 (Oryza sativa, UniProt Q6ZLB0 1-436).
T1 sequence: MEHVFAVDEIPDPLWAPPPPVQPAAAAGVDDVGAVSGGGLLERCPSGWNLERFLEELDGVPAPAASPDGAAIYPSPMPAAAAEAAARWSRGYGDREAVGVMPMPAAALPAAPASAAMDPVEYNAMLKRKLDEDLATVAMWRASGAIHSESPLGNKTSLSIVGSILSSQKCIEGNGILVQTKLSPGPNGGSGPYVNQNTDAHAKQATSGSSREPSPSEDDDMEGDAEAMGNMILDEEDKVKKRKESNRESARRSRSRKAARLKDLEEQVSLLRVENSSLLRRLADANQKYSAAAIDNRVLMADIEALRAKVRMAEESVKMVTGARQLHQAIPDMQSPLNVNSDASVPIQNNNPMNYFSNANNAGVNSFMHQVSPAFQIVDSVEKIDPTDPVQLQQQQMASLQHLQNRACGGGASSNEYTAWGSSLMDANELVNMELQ
As to the kind of experiment: protein-binding microarray (RPBM); PBS, 2% BSA, 51.3 ng/ul salmon testes DNA, 50 uM zinc acetate, 200 nM TF, 25 C, 1 h; high values mean tight binding. The conditions noted are these: protein: recombinant; tags: N-terminal polyhistidine and DsRed monomer fusion (pET32a); chain copies: 2; label: CyDye5-dUTP incorporated in the synthesized complementary strand; 3' TTTTT single-stranded linker to array surface; dsDNA, one strand shown. Put shortly:
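Binding signal here means per-feature fluorescence intensity in arbitrary units. The values were read on an Axon 4000B scanner after a custom Agilent array, double-stranded by primer extension with Cy5-dUTP, was incubated with 200 nM protein at 25 °C for 1 h in PBS with 2% BSA, salmon testes DNA and 50 µM zinc acetate, then washed. The proteins were transcription factors with an N-terminal polyhistidine tag and DsRed, expressed in E. coli BL21-CodonPlus and purified on Ni–NTA.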
As to “GTGTCTCTTCTATACGTGGCGAGCTTAGGTAGCTAGTGTACGGAGTCACCTAGTGCAG”, the binding signal is 6150 fluorescence intensity (a.u.). With “AACTAGGTCTGTCAGCCAACAATCACAGGAATCATTGCTACGGAGTCACCTAGTGCAG” the figure was 3550 fluorescence intensity (a.u.); with “GACTTGATTACCACGCGTATACTATATAGGACAAAATTGCCGGAGTCACCTAGTGCAG”, 3190 fluorescence intensity (a.u.); with “TATGATTCGTGTCGGGACACGTCTCCACGTCAAGAGCGGGCGGAGTCACCTAGTGCAG”, 9730 fluorescence intensity (a.u.). Next, “ACGTTTCGCCCCGCATGCCCTCTATATAGAGCGGTTGAGCCGGAGTCACCTAGTGCAG”: 14400 fluorescence intensity (a.u.). Next, “TTGCTTGCCACGTGCAAGATCATAGCAGATGGAGACAAAACGGAGTCACCTAGTGCAG”: 3920 fluorescence intensity (a.u.); “CCTCGCCACCGGCGAGTCCGCCACGTCGAGGAGGTTCGCCCGGAGTCACCTAGTGCAG”: 7300 fluorescence intensity (a.u.).

“GCCCTCCTTCTGACCGTCCCCTCCGCCACGCTCTTCTTCCCGGAGTCACCTAGTGCAG”: the binding signal was 3600 fluorescence intensity (a.u.). With “AACATATAAGAACATTACTGGGTCTTTGAAGTCCTTGTGTCGGAGTCACCTAGTGCAG” the figure was 3350 fluorescence intensity (a.u.). Next, “GTTGACAAGGGATTGAGTGAGTGCGTTGTAACGGTGGGCACGGAGTCACCTAGTGCAG”: 3290 fluorescence intensity (a.u.); “CGCTTGCGGCTGCAGGCTGCTGAGCTCGTCCGTCAAGCGCCGGAGTCACCTAGTGCAG”: 17400 fluorescence intensity (a.u.); “CGAATCGAACGATTTATTAGGCGTTTTATTATGTCACAGACGGAGTCACCTAGTGCAG”: 21800 fluorescence intensity (a.u.). With “TAACTGAAGGCGGCGCTCAGTCCCGCGCCTTCTGGAACCTCGGAGTCACCTAGTGCAG” the figure was 33000 fluorescence intensity (a.u.); with “TTAGACCCATTCGGGCTGGATGACGTCAATAAGGCGGGGCCGGAGTCACCTAGTGCAG”, 11200 fluorescence intensity (a.u.); with “CCCTCGCCGCCACGGCGAACCCCTCGCCGCCGCCACCGCCCGGAGTCACCTAGTGCAG”, 3570 fluorescence intensity (a.u.). As for “CCTAGACTCTACCACCATACCACTATCATCACTTCTTCCGCGGAGTCACCTAGTGCAG”, the binding signal was 3150 fluorescence intensity (a.u.). Next, “ACTGACAGGTGGGTCCCACACCGTCAGCAGTAGGACATAACGGAGTCACCTAGTGCAG”: 5490 fluorescence intensity (a.u.). With “CACGTACGCCGCCGTGTCTCATCACGAGCTCGATCGTTTCCGGAGTCACCTAGTGCAG” the figure was 4150 fluorescence intensity (a.u.). Next, “TCTGCGCGGTGGTCCCAGGCGTTGACGTGACGGGCGGCGACGGAGTCACCTAGTGCAG”: 3690 fluorescence intensity (a.u.); “GCCTCTGCCACGCCCACCTCATCCGCCTCTACCTCCGCTCCGGAGTCACCTAGTGCAG”: 6040 fluorescence intensity (a.u.); “CCTCTCCTTCCCGTCCGCATCACGCCCTCGTGGAGTCGTGCGGAGTCACCTAGTGCAG”: 4270 fluorescence intensity (a.u.). As for “AATATAAGTGTAAAACAGAGAATTGCAAAACACAGGAAAACGGAGTCACCTAGTGCAG”, the binding signal was 31500 fluorescence intensity (a.u.).

Consider “TATATTGCCCACACCACATGTTGTTCATTGTTGAAGGCACCGGAGTCACCTAGTGCAG”, for which the binding signal was 3340 fluorescence intensity (a.u.). As to “TGTTTGTTTTGGTCACATTGCCCATAACTGTATCTGCACACGGAGTCACCTAGTGCAG”, the binding signal was 3760 fluorescence intensity (a.u.). Next, “GCATTGGTGTGTCATGACAATGTAATGATTTTCACTGAGCCGGAGTCACCTAGTGCAG”: 5250 fluorescence intensity (a.u.); “AGTTTGTACGACAAGCCATGTCAAATGACAATGCAGTTTGCGGAGTCACCTAGTGCAG”: 3210 fluorescence intensity (a.u.).

With “ACGGAGCAGTGGGATGACGACACGTGCGCGCATCGTATGGCGGAGTCACCTAGTGCAG”, the binding signal was 5800 fluorescence intensity (a.u.). With “GGCGACTAGCTACGCGTGCATATGCACGAACTGTTCGATGCGGAGTCACCTAGTGCAG” the figure was 3200 fluorescence intensity (a.u.); with “TGCCGGTGGATGTTGATGGTGGTGTTTGGTGCCGGTGAATCGGAGTCACCTAGTGCAG”, 4720 fluorescence intensity (a.u.); with “CGCGCACAACTATGTGCAAATGACGCCGAAGAGAGCTGTGCGGAGTCACCTAGTGCAG”, 3260 fluorescence intensity (a.u.). With “AGGTACGGAACAAAATTATTGTAACATGATGGCATTTGAGCGGAGTCACCTAGTGCAG” the figure was 3160 fluorescence intensity (a.u.). “GTAAACGGCACATCAAATGCCACGTGGGACGAAGACCTAGCGGAGTCACCTAGTGCAG”: the binding signal was 10200 fluorescence intensity (a.u.).

Regarding “TGGAATTCACATACATAAACACTCAATAGGAGTAGAAATTCGGAGTCACCTAGTGCAG”, the binding signal was 3240 fluorescence intensity (a.u.).

With “TCCCAAACTTTCGACACTGCCATGTCAGCAATCACTTTCCCGGAGTCACCTAGTGCAG”, the binding signal was 18000 fluorescence intensity (a.u.). With “TGCAGCAGCATGAGTGCATGACCCACCCGGTTTGTTGGTTCGGAGTCACCTAGTGCAG” the figure was 3160 fluorescence intensity (a.u.). With “ACGACTTGTCGAACCCCGCCGCCGCTGCCAGATCGGAGGCCGGAGTCACCTAGTGCAG” the figure was 3510 fluorescence intensity (a.u.).

As to “CTCCAAAATCTCTATAGGATTGTCCATTCCATAGGAATTTCGGAGTCACCTAGTGCAG”, the binding signal was 3390 fluorescence intensity (a.u.). Next, “AATTTACTATGTACTGCAGGGGTGAGATTATACCACTTGACGGAGTCACCTAGTGCAG”: 3430 fluorescence intensity (a.u.); “CTCCTCATCCCCACGCCACCGCCGCCATCGCCGGCCTTTTCGGAGTCACCTAGTGCAG”: 3260 fluorescence intensity (a.u.).

With “ATTCATCGATCTATCGCTTTAACCGCCTATAAGAACATGGCGGAGTCACCTAGTGCAG”, the binding signal is 4910 fluorescence intensity (a.u.).

As for “TCCTTTAATTATATAATAGATTTCCAGATATTCTTTTACCCGGAGTCACCTAGTGCAG”, the binding signal is 3880 fluorescence intensity (a.u.). Next, “GCGATGGTGTGCATCGCCACCGCGTCGTGGTCCTTGCCGACGGAGTCACCTAGTGCAG”: 3200 fluorescence intensity (a.u.).
